# Measured values published in the supplement of paper PMC3334620.
# The full ranking holds about 33,000 sequences; the median of “E-score (-0.5 to 0.5)” is about -8e-05, and the highest 2% start at about 0.23. This is one part of the list.
# Biological target: T1, Nrg2 (UniProt P38082)
# T1 sequence: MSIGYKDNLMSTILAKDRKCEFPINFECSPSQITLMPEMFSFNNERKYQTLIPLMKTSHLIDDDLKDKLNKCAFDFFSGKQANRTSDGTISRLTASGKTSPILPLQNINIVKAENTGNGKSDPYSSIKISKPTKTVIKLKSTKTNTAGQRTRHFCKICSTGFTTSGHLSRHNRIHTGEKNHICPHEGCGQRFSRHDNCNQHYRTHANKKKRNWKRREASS
# Assay: PBM E-score (8-mer binding enrichment) (E-score (-0.5 to 0.5)); higher = stronger / more preferred TF binding
# Conditions: protein concentration: 100 nM; construct: GST-full length
# Method: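 Universal 'all 10-mer' protein binding microarrays (Agilent AMADID 015681) probed with GST-tagged S. cerevisiae TFs (full-length or DBD) made by in vitro transcription/translation (PURExpress), about 100-200 nM. Bound TF was detected with fluorescent anti-GST. Each ungapped 8-mer (which stands for itself and its reverse complement) is scored by the PBM enrichment score (E-score), a modified Wilcoxon-Mann-Whitney statistic from -0.5 to +0.5, computed with the Universal PBM Analysis Suite. Scale: above 0.35 generally sequence-specific binding.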
row,Sequence,PBM E-score
1,CAAACTGA,0.0191
2,AATGGTAA,0.194
3,CGACCGCG,0.0511
4,ACACACCT,0.0665
5,GAAATAAA,0.0799
6,CGCCTGAG,-0.00578
7,GCACGGCC,0.00561
8,ATGGGACA,0.0686
9,ACTTACTC,0.00115
10,CATTAGAA,0.0605
11,ACATTAGC,-0.0364
12,ACTATGAT,0.161
13,CGCCCGTA,-0.272
14,CGCCTCGC,-0.0994
15,ATTTATAG,0.0419
16,AATGATCG,-0.156
17,AGCTTGTC,-0.0264
18,ACCACGAG,0.0501
19,CGGTATAA,0.0444
20,CGGTTAAC,-0.146
21,ATATCCTG,0.0232
22,AGGCCTAC,0.025
23,CGGGTTTC,0.0653
24,AAGCCGTG,-0.106
25,AACAGATT,-0.0386

row,Sequence,PBM E-score
1,GACCTCAC,-0.0708
2,CATCGTTA,-0.0234
3,ATTCATTA,0.134
4,CATTGTGG,-0.0117
5,TCCCAGCA,-0.082
6,GAGGGCCA,-0.0868
7,AAAACGCC,0.0808
8,GCTATCTA,-0.0754
9,ACCTCTTC,0.0127
10,CTGTTGCA,0.181
11,AGACTGGC,-0.303
12,AAAACACT,0.0319
13,CTTCACTC,0.0762
14,GGCTTACC,-0.111
15,CGTTAAGC,0.0258
16,CCAAGTAC,-0.0521
17,AACGAGAT,0.0961
18,AGGCCCTC,-0.11
19,GATTCTCA,0.183
20,AGAACGTC,0.0815
21,AGGGACGC,0.196
22,ACCTGCGC,0.0898
23,AGGCATCG,-0.125
24,GAGTCTGC,-0.28
25,AAGCTGTC,0.0317

row,Sequence,PBM E-score
1,CCCTAACA,0.205
2,GAACGTAA,0.196
3,CAGCCTTC,-0.149
4,ACGTTGGA,-0.138
5,AGTCCCGC,-0.0359
6,GTACTGGA,-0.0686
7,CACCTATA,-0.032
8,AGACGTCG,-0.151
9,GACGGTAA,-0.072
10,ACAAAGGA,0.0252
11,CAATTAGG,-0.035
12,CTCCAATA,0.0227
13,ATCGGCCG,-0.0992
14,GAAGCGAA,0.0512
15,AGTATCGG,0.0262
16,ACATTCGT,0.0155
17,ACAGACTG,-0.0142
18,TCACACGA,0.0745
19,ATGATTAA,0.0628
20,GCCCTGAC,-0.00086
21,TACACTGA,0.144
22,GTAAAGAC,0.136
23,CCCTCAAA,0.0328
24,ATTAATTC,0.229
25,AGGGATCA,0.184

row,Sequence,PBM E-score
1,AGCAACCC,-0.153
2,GTGAGAAC,-0.0135
3,CACTGAGC,-0.0828
4,AACGGGGT,-0.123
5,AGAAAACA,-0.0691
6,ACAAATGC,0.084
7,CGGAAACC,-0.0945
8,AAAGGACA,0.0964
9,GTCATGGA,-0.0624
10,TAGCCGCA,-0.0795
11,CAGTCATA,-0.0949
12,TAGGGCAA,-0.12
13,ACCCGACC,-0.0948
14,GATCGACC,0.0374
15,CCGCTTGA,0.0233
16,GCGTGGCA,-0.137
17,AACAGGCG,-0.166
18,CAGTGTTA,0.147
19,ATAATGTA,0.122
20,CAGCTATG,-0.123
21,CATGGACA,0.00291
22,CTACCCAA,-0.0593
23,GTCGCGCA,-0.077
24,CATGTCCA,-0.0341
25,CTACAAAG,0.116

row,Sequence,PBM E-score
1,GATCAGAA,-0.0998
2,AGTGACAG,0.0722
3,ATACCCCG,0.0515
4,AAGGGCAA,0.153
5,CATTCAGC,-0.118
6,ACTCTACG,-0.0126
7,GAAGGACA,-0.00553
8,ACAGCGTA,-0.118
9,CAATCAAC,0.157
10,ACTTGTCG,0.059
11,GGAAACCA,-0.159
12,GGCCTGAA,-0.105
13,AAATGTAA,0.0932
14,AGTTTCTC,-0.0424
15,CCCGTAAG,-0.157
16,ACCATTTC,0.0439
17,AACCCATC,0.0091
18,ATGGACAT,0.0544
19,CCTCTTTA,-0.243
20,GTAGTGTA,0.024
21,CCTAGATC,0.0583
22,GCTAAAGC,-0.0297
23,ATTATTGG,-0.00344
24,ACTCTGCA,0.108
25,CGTACAGC,-0.171

# 7 records drawn at random from those above, as already listed:
row,Sequence,PBM E-score
15,CCCGTAAG,-0.157
4,AAGGGCAA,0.153
21,CCTAGATC,0.0583
3,ATACCCCG,0.0515
25,CGTACAGC,-0.171
23,ATTATTGG,-0.00344
14,AGTTTCTC,-0.0424

# Next entries.

row,Sequence,PBM E-score
1,CAGATCGG,-0.00992
2,GCGAGCCA,0.0283
3,ATCACCTG,0.0306
4,GGCAAGAC,-0.065
5,CGCCACCC,-0.239
6,TAAGTGAA,0.0844
7,GACCCAAA,0.0147
8,GTTATTCA,0.105
9,ATGCACTA,-0.0386
10,AGCGATAT,0.13
11,GCCCTCCC,-0.271
12,CCAATTGA,0.0132
13,CAAAATAC,0.0204
14,ACTGTATA,-0.00299
15,CTAGCGTC,-0.181
16,AGTGATCG,-0.0464
17,ATGAACGG,-0.0248
18,GTATAGAA,0.0955
19,CCATCAGA,0.00899
20,ACCTCAAC,0.0405
21,CAAAGAAC,-0.0376
22,CCCTCAAG,-0.172
23,AGGATCAC,0.067
24,CTCGGTGA,-0.169
25,CTGACGTA,-0.105

row,Sequence,PBM E-score
1,ACCAAACA,0.113
2,CACCACAG,0.0027
3,CCCTGACC,0.3
4,CGACTCTA,-0.0195
5,CCTACAAG,-0.187
6,GAGAGATA,0.0968
7,ATGATAGA,-0.0326
8,ACAGCCCC,-0.0265
9,CTCCCGAC,-0.203
10,AAGGCTTC,-0.122
11,GCGCAGAC,0.0533
12,CCTTTCAA,0.0566
13,CCAGAAGA,-0.0496
14,ACGCGATG,-0.00691
15,CGGTTCAG,-0.34
16,CAGAAATG,-0.0173
17,GGGTGAGA,-0.211
18,AAGTCGCG,-0.0145
19,AACGAGCG,0.0427
20,GATGCTCA,-0.12
21,AATCTGGC,-0.214
22,ATTCTGCG,0.193

# Part of the list above in a different format:
row | Sequence | PBM E-score
24 | AAGCCGTG | -0.106
25 | AACAGATT | -0.0386
1 | GACCTCAC | -0.0708
